In publication PMC5268481:
Results are given in words; binding and its absence hold for the method and conditions named. In cells and extracts the contact can be indirect. Some entries that bind do so weakly or less than the wild type. Where a sequence is shown, tags or fusion partners need not be part of it.

Sequences of proteins named here, by UniProt entry; tags and fusion partners are left off. A change or cut given only in a name is not applied to a line headed by its entry.
UniProt Q9DC28: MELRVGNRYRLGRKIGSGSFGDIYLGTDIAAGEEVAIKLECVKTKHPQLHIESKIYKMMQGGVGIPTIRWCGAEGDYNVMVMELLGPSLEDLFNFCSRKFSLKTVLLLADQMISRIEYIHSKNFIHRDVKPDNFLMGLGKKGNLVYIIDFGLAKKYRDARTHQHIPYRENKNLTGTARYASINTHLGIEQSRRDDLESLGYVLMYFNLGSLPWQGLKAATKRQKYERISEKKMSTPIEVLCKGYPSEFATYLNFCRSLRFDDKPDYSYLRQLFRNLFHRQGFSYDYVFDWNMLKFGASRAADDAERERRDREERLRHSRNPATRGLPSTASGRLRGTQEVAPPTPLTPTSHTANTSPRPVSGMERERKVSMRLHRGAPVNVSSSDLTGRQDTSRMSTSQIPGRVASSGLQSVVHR

Biological target: T1, FLAG-Chk1 (UniProt O14757)
T1 sequence: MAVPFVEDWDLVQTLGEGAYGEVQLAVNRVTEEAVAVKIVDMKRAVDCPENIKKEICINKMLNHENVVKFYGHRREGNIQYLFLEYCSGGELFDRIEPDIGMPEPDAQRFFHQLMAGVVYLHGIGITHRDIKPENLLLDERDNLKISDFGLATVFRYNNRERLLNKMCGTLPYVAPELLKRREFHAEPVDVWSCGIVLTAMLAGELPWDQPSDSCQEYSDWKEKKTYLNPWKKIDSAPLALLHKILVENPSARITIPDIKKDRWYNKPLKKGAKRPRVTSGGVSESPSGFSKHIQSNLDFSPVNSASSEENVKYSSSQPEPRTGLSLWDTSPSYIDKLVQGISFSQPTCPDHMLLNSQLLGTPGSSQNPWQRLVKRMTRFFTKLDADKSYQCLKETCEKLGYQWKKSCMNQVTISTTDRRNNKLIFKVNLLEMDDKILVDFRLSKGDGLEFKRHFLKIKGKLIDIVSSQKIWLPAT
Assay: co-IP; HEK293 cells transfected with FLAG-Chk1 and Myc-CK1δ derivatives, lysed 48 h later; 1 mg pre-cleared lysate with FLAG antibody on protein A/G-agarose overnight at 4°C in IP buffer (20 mM Tris-HCl pH 8.0, 10 mM EDTA, 1 mM EGTA, 150 mM NaCl, 0.2% Triton-X, 0.2% Nonidet P-40); western blotting

6xMyc-mouse CK1δ kinase-dead (K38A) derivative (from UniProt Q9DC28 1-415) (enzyme)
binding: binds

6xMyc-mouse CK1δ wild type (WT), full length (from UniProt Q9DC28 1-415) (enzyme)
binding: binds

Myc-CK1δ KD (kinase domain only) (from UniProt Q9DC28 9-277) (domain or fragment)
binding: binds
